Reference: patent publication US20240100170A1, “CYCLIC-AMP RESPONSE ELEMENT BINDING PROTEIN (CBP) AND/OR ADENOVIRAL E1A BINDING PROTEIN OF 300 KDA (P300) DEGRADATION COMPOUNDS AND METHODS OF USE” (CULLGEN (SHANGHAI), INC., priority 2020, published 2024)
Some entries share one result that the patent states for a list of compounds.

Chains of the proteins cited; added tags and fusions are not shown.
UniProt Q09472, whole entry: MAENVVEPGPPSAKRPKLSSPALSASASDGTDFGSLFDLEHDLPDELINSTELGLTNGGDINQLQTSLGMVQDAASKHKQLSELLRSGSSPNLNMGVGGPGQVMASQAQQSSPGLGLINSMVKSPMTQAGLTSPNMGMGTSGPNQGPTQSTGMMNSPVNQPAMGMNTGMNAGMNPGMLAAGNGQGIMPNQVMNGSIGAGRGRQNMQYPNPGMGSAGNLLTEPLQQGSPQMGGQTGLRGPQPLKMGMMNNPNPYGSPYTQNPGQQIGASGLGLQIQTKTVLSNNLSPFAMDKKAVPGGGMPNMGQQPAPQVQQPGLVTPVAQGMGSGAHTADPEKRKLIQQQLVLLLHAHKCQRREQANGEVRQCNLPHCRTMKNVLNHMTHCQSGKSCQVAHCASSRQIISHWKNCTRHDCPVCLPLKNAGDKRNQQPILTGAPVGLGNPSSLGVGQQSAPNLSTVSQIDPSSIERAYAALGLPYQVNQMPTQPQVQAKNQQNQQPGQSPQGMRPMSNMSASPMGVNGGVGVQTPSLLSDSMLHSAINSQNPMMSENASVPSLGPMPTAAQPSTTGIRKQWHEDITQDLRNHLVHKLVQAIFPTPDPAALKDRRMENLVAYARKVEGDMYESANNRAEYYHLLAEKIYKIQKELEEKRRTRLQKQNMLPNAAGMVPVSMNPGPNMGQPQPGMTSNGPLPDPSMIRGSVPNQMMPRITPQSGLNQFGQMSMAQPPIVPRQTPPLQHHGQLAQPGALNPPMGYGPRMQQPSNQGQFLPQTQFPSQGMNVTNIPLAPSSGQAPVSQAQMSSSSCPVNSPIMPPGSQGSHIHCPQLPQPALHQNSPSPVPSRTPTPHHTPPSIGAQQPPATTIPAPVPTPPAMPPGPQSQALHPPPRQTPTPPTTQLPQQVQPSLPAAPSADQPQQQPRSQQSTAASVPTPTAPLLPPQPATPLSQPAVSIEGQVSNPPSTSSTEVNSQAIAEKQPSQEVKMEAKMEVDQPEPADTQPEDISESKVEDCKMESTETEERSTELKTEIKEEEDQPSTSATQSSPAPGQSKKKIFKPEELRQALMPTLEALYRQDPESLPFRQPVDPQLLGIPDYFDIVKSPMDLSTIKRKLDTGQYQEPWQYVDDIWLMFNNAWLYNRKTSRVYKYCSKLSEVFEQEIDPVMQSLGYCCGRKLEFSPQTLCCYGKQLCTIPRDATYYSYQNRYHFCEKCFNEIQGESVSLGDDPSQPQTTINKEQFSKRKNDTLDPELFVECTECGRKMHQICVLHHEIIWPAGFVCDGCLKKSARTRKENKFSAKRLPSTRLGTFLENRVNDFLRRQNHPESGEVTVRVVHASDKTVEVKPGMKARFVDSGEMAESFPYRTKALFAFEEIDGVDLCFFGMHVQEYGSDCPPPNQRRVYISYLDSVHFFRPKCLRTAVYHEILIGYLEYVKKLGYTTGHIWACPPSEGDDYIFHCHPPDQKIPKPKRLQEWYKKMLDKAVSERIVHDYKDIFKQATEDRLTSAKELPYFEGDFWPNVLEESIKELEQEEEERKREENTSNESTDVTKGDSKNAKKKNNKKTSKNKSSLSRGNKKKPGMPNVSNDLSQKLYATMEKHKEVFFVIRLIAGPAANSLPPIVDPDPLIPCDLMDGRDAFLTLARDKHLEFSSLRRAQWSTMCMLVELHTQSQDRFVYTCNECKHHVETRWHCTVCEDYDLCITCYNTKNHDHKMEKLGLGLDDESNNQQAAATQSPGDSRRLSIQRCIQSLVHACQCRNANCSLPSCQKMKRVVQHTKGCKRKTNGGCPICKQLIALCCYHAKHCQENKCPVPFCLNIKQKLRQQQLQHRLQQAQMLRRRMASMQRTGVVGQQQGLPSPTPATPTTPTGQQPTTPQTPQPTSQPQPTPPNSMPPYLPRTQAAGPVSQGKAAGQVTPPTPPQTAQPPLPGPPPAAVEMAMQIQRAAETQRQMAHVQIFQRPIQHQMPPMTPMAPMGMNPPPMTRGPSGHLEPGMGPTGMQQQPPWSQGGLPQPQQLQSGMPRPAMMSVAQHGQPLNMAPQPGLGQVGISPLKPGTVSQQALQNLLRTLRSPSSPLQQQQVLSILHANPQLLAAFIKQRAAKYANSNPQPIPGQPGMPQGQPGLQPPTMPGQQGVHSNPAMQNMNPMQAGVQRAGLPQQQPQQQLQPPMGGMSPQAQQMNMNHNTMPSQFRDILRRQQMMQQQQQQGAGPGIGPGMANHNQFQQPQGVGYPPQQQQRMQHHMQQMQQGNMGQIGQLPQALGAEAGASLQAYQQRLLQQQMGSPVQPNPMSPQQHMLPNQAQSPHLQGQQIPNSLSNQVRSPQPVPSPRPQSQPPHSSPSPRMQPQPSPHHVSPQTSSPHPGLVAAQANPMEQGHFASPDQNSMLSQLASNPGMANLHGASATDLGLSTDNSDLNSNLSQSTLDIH

Biological target: P300 (Homo sapiens, UniProt Q09472)
Experiment: P300 protein level by immunoblotting in LNCaP cells
Assay type: cell-based
Design: LNCaP or 22RV1 cells that express CBP/P300 proteins were treated with GNE-781 or the bivalent compounds; endogenous in cells; host or cells: LNCaP or 22RV1 (not given)
Conditions: 20 nM, FIG. 3
Procedure: Specific exemplary bivalent compounds were characterized in LNCaP or 22RV1 cells. LNCaP or 22RV1 cells that express CBP/P300 proteins were treated with GNE-781 or the bivalent compounds disclosed herein (P-001 to P-265) for indicated hours. Cells were collected, lysed and subject to immunoblotting using an antibody specific to P300 or CBP proteins. Tubulin or vinculin was included as the loading control. DMSO was used as the negative control.
LNCaP (clone FGC), 22RV1 and other cells were cultured at 37° C. with 5% CO 2 in RPMI 1640 Medium supplemented with 10% fetal bovine serum. Cells were authenticated using the short tandem repeat (STR) assays. Mycoplasma test results were negative.
Cultured cells or tissue chunks were washed with cold PBS once and lysed in cold RIPA buffer supplemented with protease inhibitors and phosphatase inhibitors (Beyotime Biotechnology). The solutions were then incubated at 4° C. for 30 minutes with gentle agitation to fully lyse cells. Cell lysates were centrifuged at 13,000 rpm for 10 minutes at 4° C. and pellets were discarded. Total protein concentrations in the lysates were determined by BCA assays (Beyotime Biotechnology). Cell lysates were mixed with Laemmli loading buffer to 1 X and heated at 99° C. for 5 min. Proteins were resolved on SDS-PAGE and visualized by chemiluminescence. Images were taken by a ChemiDoc MP Imaging system (Bio-Rad). Protein bands were quantitated using the accompanied software provided by Bio-Rad.

CNC(=O)N1CCc2c(c(N3CCCc4cc(-c5cnn(CC(=O)NCCCCCCNc6ccc7c(c6)C(=O)N(C6CCC(=O)NC6=O)C7=O)c5)c(C(F)F)cc43)nn2C2CCOCC2)C1 (stereo not shown) [P-020, 3-(7-(difluoromethyl)-6-(1-(2-((6-((2-(2,6-dioxopiperidin-3-yl)-1,3-dioxoisoindolin-5-yl)amino)hexyl)amino)-2-oxoethyl)-1H-pyrazol-4-yl)-3,4-dihydroquinolin-1(2H)-yl)-N-methyl-1-(tetrahydro-2H-pyran-4-yl)-1,4,6,7-tetrahydro-5H-pyrazolo[4,3-c]pyridine-5-carboxamide]
time at which significant degradation of P300 was detected: ≤ 2 h

CNC(=O)N1CCc2c(c(N3CCCc4cc(-c5cnn(C)c5)c(C(F)F)cc43)nn2C2CCN(C(=O)CCCCCNc3ccc4c(c3)C(=O)N(C3CCC(=O)NC3=O)C4=O)CC2)C1 (stereo not shown) [P-005, 3-(7-(difluoromethyl)-6-(1-methyl-1H-pyrazol-4-yl)-3,4-dihydroquinolin-1(2H)-yl)-1-(1-(6-((2-(2,6-dioxopiperidin-3-yl)-1,3-dioxoisoindolin-5-yl)amino)hexanoyl)piperidin-4-yl)-N-methyl-1,4,6,7-tetrahydro-5H-pyrazolo[4,3-c]pyridine-5-carboxamide]
time at which significant degradation of P300 was detected: ≤ 2 h

CNC(=O)N1CCc2c(c(N3CCCc4cc(-c5cnn(C)c5)c(C(F)F)cc43)nn2C2CCN(C(=O)CCCCNc3ccc4c(c3)C(=O)N(C3CCC(=O)NC3=O)C4=O)CC2)C1 (stereo not shown) [P-004, 3-(7-(difluoromethyl)-6-(1-methyl-1H-pyrazol-4-yl)-3,4-dihydroquinolin-1(2H)-yl)-1-(1-(5-((2-(2,6-dioxopiperidin-3-yl)-1,3-dioxoisoindolin-5-yl)amino)pentanoyl)piperidin-4-yl)-N-methyl-1,4,6,7-tetrahydro-5H-pyrazolo[4,3-c]pyridine-5-carboxamide]
time at which significant degradation of P300 was detected: ≤ 2 h

CNC(=O)N1CCc2c(c(N3CCCc4cc(-c5cnn(C)c5)c(C(F)F)cc43)nn2C2CCN(C(=O)CCCNc3cccc4c3C(=O)N(C3CCC(=O)NC3=O)C4=O)CC2)C1 (stereo not shown) [P-015, 3-(7-(difluoromethyl)-6-(1-methyl-1H-pyrazol-4-yl)-3,4-dihydroquinolin-1(2H)-yl)-1-(1-(4-((2-(2,6-dioxopiperidin-3-yl)-1,3-dioxoisoindolin-4-yl)amino)butanoyl)piperidin-4-yl)-N-methyl-1,4,6,7-tetrahydro-5H-pyrazolo[4,3-c]pyridine-5-carboxamide]
time at which significant degradation of P300 was detected: ≤ 2 h
